Measured values reported in patent publication US10053491 (dated 2018).
The star is where a group is joined. NHNH2 = NN*

Assay: general procedure: Fmoc solid-phase peptide synthesis; resin for Fmoc solid-phase synthesis
Settings: late stage modification step

Ac-LYRAA-NHNH2
step yield: 63% | step yield (isolation yield): 80%
